Measured values from article PMC10061982.
These are yes or no findings as the source states them, for the method shown. In cells and extracts the contact can be indirect. These calls come from enrichment with a bait or labelling near it, and not all partners need be listed.

Amino acid sequences for entries named in this document (tags omitted). A change or cut given only in a name is not applied to a line headed by its entry.
UniProt P13667: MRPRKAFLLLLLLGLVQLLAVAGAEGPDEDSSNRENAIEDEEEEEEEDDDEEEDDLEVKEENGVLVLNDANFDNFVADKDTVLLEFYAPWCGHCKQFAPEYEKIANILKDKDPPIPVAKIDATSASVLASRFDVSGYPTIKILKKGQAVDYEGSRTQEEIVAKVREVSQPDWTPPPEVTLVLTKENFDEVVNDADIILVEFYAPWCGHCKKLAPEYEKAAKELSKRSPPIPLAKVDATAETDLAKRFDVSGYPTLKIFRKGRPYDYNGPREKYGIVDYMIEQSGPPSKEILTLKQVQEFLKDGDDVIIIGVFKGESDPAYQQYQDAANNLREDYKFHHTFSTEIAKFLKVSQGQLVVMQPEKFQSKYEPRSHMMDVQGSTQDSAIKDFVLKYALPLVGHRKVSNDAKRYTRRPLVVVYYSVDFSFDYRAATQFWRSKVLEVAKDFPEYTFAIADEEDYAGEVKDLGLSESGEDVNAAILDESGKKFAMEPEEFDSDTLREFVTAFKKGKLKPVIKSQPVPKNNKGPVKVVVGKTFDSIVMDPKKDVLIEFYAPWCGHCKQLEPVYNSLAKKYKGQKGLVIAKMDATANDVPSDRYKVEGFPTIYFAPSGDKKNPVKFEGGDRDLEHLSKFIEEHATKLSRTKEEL
UniProt P15692: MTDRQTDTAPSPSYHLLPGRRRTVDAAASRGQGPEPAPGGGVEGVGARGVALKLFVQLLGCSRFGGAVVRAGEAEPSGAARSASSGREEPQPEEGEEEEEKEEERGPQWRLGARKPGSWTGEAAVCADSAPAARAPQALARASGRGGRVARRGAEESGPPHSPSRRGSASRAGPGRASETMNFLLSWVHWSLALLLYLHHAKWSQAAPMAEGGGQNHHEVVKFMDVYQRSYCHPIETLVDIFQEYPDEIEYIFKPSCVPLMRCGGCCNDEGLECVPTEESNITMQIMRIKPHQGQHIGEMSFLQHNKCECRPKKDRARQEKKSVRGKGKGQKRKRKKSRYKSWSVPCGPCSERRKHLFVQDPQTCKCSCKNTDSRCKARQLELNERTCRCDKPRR

Biological target: 3Flag-tagged mutant PDIA4 (CXXC to CXXA at the three active sites) (human) (UniProt P13667)
Assay: affinity purification with mass spectrometry; anti-Flag immunoprecipitation from U87 cells stably overexpressing Flag-mPDIA4; cells rinsed with PBS with 20 mM NEM, NP40 lysis buffer with 0.5 mM PMSF; LC-ESI-MS/MS; hits of normal rabbit IgG subtracted

human VEGFA (endogenous, U87 cells) (from UniProt P15692 1-395) (ligand)
binding: binds
